# Test results taken from patent US20170189504A1, “NOVEL PEPTIDES AND COMBINATION OF PEPTIDES FOR USE IN IMMUNOTHERAPY AGAINST VARIOUS CANCERS” (immatics biotechnologies GmbH, priority 2015, published 2017).
# Columns and labels:
# [1] = test system: HLA-A*02; test: Identification and relative LC-MS quantitation of HLA-A*02-presented tumor-associated peptides on tissue samples (presentation profiles, Tables 13A, 13B, 15, FIG. 1); set-up: species or system human; key to Presentation score NHL / Presentation score CLL / Presentation score BRCA / Presentation score AML / Presentation score GB / Presentation score NSCLC / Presentation score GBC_CCC / Presentation score UEC / Presentation score MEL / Presentation score OSCAR / Presentation score GC / Presentation score UBC / Presentation score OC / Presentation score RCC / Presentation score CRC / Presentation score PCA / Presentation score HCC / Presentation score PC / Presentation score SCLC: specifically presented on tumors (++++); very highly over-presented on tumors compared to a panel of normal tissues (+++); highly over-presented on tumors compared to a panel of normal tissues (++); over-presented on tumors compared to a panel of normal tissues (+); conditions: for Peptide Presentation on cancer entities: HLA-A*02-binding tumor-associated peptides
# [2] = test system: source genes (mRNA); test: Gene and exon expression of source genes, TCGA tumor samples compared with normal tissue samples (Lonsdale, 2013) (Table 17); set-up: species or system human
substance,measurement,setting,value
135: peptide found in CHUK (gene looked up) (HLSTIIHEA; listed as Homo sapiens) [compound 135],Presentation score CLL,"[1]; HLA-A*02 peptides, chronic lymphocytic leukemia (N = 17) vs panel of normal tissues (N = 262)",++++
same,Presentation score NSCLC,"[1]; HLA-A*02 peptides, non-small cell lung cancer (N = 90) vs panel of normal tissues (N = 262)",++++
same,Peptide Presentation on cancer entities,"[1]; Table 13A, cancer entities on which the peptide was found presented","NSCLC, CLL"
same,Peptide Presentation on cancer entities,"[1]; Table 13B, presentation on additional cancer entities","CLL, UEC"
same,"Over-expression category of source gene (target coverage), BLCA","[2]; BLCA = Bladder urothelial carcinoma (N = 408), same cutoff","B (>= 20% of tumors above the cutoff, but <50%)"
same,"Over-expression category of source gene (target coverage), BRCA","[2]; BRCA = Breast cancer (N = 1104), tumors more than 2-fold above highest 75% percentile of normal tissues",A (>=50% of tumors above the cutoff)
same,"Over-expression category of source gene (target coverage), CHOL","[2]; CHOL = Cholangiocarcinoma (N = 36), same cutoff",A (>=50% of tumors above the cutoff)
same,"Over-expression category of source gene (target coverage), COAD","[2]; COAD = Colon and rectal adenocarcinoma (N = 462), same cutoff",A (>=50% of tumors above the cutoff)
same,"Over-expression category of source gene (target coverage), DLBC","[2]; DLBC = Lymphoid neoplasm diffuse large B-cell lymphoma (N = 48), same cutoff",A (>=50% of tumors above the cutoff)
same,"Over-expression category of source gene (target coverage), ESCA","[2]; ESCA = Esophageal cancer (N = 185), same cutoff",A (>=50% of tumors above the cutoff)
same,"Over-expression category of source gene (target coverage), GBM","[2]; GBM = Glioblastoma multiforme (N = 169), same cutoff",A (>=50% of tumors above the cutoff)
same,"Over-expression category of source gene (target coverage), KICH","[2]; KICH = Kidney chromophobe (N = 66), same cutoff",A (>=50% of tumors above the cutoff)
same,"Over-expression category of source gene (target coverage), KIRC","[2]; KIRC = Clear cell kidney carcinoma (N = 534), same cutoff",A (>=50% of tumors above the cutoff)
same,"Over-expression category of source gene (target coverage), KIRP","[2]; KIRP = Papillary kidney carcinoma (N = 291), same cutoff",A (>=50% of tumors above the cutoff)
same,"Over-expression category of source gene (target coverage), LAML","[2]; LAML = Acute Myeloid Leukemia (N = 173), same cutoff",A (>=50% of tumors above the cutoff)
same,"Over-expression category of source gene (target coverage), LGG","[2]; LGG = Lower grade glioma (N = 534), same cutoff",A (>=50% of tumors above the cutoff)
same,"Over-expression category of source gene (target coverage), LIHC","[2]; LIHC = Liver hepatocellular carcinoma (N = 374), same cutoff","B (>= 20% of tumors above the cutoff, but <50%)"
same,"Over-expression category of source gene (target coverage), LUAD","[2]; LUAD = Lung adenocarcinoma (N = 517), same cutoff",A (>=50% of tumors above the cutoff)
same,"Over-expression category of source gene (target coverage), LUSC","[2]; LUSC = Lung squamous cell carcinoma (N = 503), same cutoff",A (>=50% of tumors above the cutoff)
same,"Over-expression category of source gene (target coverage), OV","[2]; OV = Ovarian serous cystadenocarcinoma (N = 309), same cutoff",A (>=50% of tumors above the cutoff)
same,"Over-expression category of source gene (target coverage), PAAD","[2]; PAAD = Pancreatic ductal adenocarcinoma (N = 179), same cutoff",A (>=50% of tumors above the cutoff)
same,"Over-expression category of source gene (target coverage), PRAD","[2]; PRAD = Prostate adenocarcinoma (N = 498), same cutoff",A (>=50% of tumors above the cutoff)
same,"Over-expression category of source gene (target coverage), READ","[2]; READ = Colon and rectal adenocarcinoma (N = 167), same cutoff",A (>=50% of tumors above the cutoff)
same,"Over-expression category of source gene (target coverage), SKCM","[2]; SKCM = Skin cutaneous melanoma (N = 473), same cutoff",A (>=50% of tumors above the cutoff)
same,"Over-expression category of source gene (target coverage), STAD","[2]; STAD = Stomach adenocarcinoma (N = 415), same cutoff",A (>=50% of tumors above the cutoff)
same,"Over-expression category of source gene (target coverage), UCEC","[2]; UCEC = Uterine corpus endometrial carcinoma (N = 546), same cutoff","B (>= 20% of tumors above the cutoff, but <50%)"

# For some assays here: Expression values are those of the mRNA of the gene that encodes the peptide; a gene is named only where it was looked up.
